Experimental data as given in patent publication US20240226230A1.
Results are given in words; binding and its absence hold for the method and conditions named. Some binding calls cover weakened binding; strength is not graded here.

The chains behind the UniProt entries cited, without tags or fusion partners. Where a name states a change or a piece, a line headed by the entry shows the natural chain unless it says otherwise. A line that says so, or that is headed by a name, gives the form on record, which may keep a tag or linker. Residues count along the entry.
endogenous Nup62 (P37198, residues 2-522): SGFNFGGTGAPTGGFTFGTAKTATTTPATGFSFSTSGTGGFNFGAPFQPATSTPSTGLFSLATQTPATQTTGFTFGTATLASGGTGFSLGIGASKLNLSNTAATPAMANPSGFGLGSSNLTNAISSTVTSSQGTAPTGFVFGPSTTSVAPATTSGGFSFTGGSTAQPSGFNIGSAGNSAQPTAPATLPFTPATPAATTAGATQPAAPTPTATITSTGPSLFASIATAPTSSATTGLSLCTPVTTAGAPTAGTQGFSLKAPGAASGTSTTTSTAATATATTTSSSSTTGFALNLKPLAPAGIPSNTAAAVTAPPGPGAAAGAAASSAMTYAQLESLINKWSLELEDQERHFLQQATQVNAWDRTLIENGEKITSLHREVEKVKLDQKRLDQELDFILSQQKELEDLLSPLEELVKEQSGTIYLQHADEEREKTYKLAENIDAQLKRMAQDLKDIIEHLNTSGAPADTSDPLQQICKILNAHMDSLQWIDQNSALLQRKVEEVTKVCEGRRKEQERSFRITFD
Nup62-mCherry (P37198, form named): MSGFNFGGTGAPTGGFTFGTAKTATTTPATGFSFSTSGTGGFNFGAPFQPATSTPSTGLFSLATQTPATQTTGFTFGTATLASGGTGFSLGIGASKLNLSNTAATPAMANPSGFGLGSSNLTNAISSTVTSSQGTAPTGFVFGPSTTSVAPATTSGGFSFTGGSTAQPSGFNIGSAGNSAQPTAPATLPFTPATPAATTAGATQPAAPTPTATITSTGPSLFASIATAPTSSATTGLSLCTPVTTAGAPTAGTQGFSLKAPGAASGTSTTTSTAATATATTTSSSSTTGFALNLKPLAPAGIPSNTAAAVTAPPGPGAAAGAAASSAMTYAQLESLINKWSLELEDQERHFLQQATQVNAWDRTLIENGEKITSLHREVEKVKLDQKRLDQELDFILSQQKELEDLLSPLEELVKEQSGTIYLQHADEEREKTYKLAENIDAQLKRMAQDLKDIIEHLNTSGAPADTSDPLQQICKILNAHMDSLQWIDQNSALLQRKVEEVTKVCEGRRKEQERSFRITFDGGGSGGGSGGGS
UniProt P52948, residues 1-880: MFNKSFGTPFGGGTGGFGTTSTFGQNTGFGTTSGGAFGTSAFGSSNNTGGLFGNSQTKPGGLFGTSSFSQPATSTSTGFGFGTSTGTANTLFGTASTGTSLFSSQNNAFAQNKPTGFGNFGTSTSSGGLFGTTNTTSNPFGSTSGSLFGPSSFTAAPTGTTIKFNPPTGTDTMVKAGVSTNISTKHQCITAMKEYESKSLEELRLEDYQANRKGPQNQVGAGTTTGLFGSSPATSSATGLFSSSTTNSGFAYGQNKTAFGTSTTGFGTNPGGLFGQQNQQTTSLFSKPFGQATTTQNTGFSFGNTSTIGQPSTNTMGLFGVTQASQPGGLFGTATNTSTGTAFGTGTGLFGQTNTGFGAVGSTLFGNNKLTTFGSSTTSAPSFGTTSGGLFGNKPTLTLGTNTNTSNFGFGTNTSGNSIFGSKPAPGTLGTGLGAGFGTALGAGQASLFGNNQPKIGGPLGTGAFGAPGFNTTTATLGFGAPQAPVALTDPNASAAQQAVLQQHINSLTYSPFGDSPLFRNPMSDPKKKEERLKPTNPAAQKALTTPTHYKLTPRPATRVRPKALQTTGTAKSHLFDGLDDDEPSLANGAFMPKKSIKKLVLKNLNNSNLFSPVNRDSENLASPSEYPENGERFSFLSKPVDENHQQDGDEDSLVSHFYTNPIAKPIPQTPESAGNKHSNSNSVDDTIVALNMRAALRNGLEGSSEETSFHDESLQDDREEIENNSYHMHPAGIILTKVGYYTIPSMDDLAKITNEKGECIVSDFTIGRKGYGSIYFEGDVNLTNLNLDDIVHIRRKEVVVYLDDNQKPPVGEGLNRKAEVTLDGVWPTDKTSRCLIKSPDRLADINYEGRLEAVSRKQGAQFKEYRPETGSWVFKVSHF
GFP-XPO1 (O14980, form named): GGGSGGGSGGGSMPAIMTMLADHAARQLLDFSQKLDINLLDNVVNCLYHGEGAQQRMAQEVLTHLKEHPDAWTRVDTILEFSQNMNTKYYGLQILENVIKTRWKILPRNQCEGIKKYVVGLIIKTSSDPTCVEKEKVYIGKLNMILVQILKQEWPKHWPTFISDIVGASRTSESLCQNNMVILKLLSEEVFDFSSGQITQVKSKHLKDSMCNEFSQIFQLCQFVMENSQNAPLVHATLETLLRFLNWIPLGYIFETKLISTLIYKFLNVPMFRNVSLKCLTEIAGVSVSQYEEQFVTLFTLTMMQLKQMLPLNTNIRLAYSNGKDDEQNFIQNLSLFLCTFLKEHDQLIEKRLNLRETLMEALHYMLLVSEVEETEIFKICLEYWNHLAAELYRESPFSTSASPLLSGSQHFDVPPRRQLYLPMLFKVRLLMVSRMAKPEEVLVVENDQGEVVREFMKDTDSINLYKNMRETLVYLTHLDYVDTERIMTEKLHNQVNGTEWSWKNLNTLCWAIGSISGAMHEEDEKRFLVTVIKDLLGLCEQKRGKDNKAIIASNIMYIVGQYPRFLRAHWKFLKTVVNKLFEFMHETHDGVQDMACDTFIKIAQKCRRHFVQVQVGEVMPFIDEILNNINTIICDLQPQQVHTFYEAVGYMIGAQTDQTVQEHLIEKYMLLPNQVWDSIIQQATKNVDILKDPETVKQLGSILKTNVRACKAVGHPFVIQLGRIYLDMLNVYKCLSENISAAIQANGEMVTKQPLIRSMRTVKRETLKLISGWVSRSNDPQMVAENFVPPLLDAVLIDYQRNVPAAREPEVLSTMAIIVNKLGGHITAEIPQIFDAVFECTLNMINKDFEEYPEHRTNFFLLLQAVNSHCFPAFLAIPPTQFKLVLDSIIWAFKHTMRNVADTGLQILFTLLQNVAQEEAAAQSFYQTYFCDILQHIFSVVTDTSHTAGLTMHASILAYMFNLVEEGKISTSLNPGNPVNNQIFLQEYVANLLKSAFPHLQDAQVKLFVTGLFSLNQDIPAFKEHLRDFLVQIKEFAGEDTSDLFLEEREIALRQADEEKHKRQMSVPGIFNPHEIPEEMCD

How the values were obtained:
Nup62-mCherry [1] = molecular target: Nup62-mCherry (UniProt P37198); test: co-localisation by immunofluorescence in HEK293T cells (not a direct binding assay)
GFP-TDP-CTF (human) [2] = molecular target: GFP-TDP-CTF (human) (UniProt Q13148); test: GFP-Trap IP from HEK293T lysates, western blot (FIG. 22D; TDP-CTF is the reference)
mCherry-TDP-CTF (human) [3] = molecular target: mCherry-TDP-CTF (human) (UniProt Q13148); test: co-localisation by immunofluorescence in HEK293T cells (not a direct binding assay)
[4] = molecular target: mCherry-TDP-43^mNLS (human) (UniProt Q13148); test: co-localisation by immunofluorescence in HEK293T cells (FIG. 35; not a direct binding assay)
mCherry-TDP-CTF (human) [5] = molecular target: mCherry-TDP-CTF (human) (UniProt Q13148); test: as above
mCherry-TDP-PrLD (human) = mCherry-TDP-PrLD (human) (UniProt Q13148); test: as above
GFP-TDP-CTF (human) [6] = molecular target: GFP-TDP-CTF (human) (UniProt Q13148); test: GFP-Trap IP from HEK293T lysates, western blot
[7] = molecular target: GFP-TDP-CTF^VLIM-F (human) (UniProt Q13148); test: co-localisation by immunocytochemistry (not a direct binding assay)
Nup62-mCherry [8] = molecular target: Nup62-mCherry (UniProt P37198); test: co-localisation by immunofluorescence in HEK293T cells (FIG. 22G; not a direct binding assay)
GFP-TDP-43^mNLS (human) [9] = molecular target: GFP-TDP-43^mNLS (human) (UniProt Q13148); test: co-localisation by immunofluorescence in HEK293T cells (not a direct binding assay)
[10] = molecular target: GFP-TDP-43^mNLS 5F-L (human) (UniProt Q13148); test: as above
GFP-TDP-CTF (human) [11] = molecular target: GFP-TDP-CTF (human) (UniProt Q13148); test: as above
GFP-TDP-PrLD (human) [12] = molecular target: GFP-TDP-PrLD (human) (UniProt Q13148); test: as above
GFP-TDP-43^mNLS (human) [13] = molecular target: GFP-TDP-43^mNLS (human) (UniProt Q13148); test: co-localisation by fluorescence microscopy of co-transfected cells (not a direct binding assay)
GFP-TDP-CTF (human) [14] = molecular target: GFP-TDP-CTF (human) (UniProt Q13148); test: as above
GFP-TDP-PrLD (human) [15] = molecular target: GFP-TDP-PrLD (human) (UniProt Q13148); test: as above

Measured: binding

GFP-TNPO1 (from UniProt Q92973 1-890)
binds: Nup62-mCherry [1]

endogenous Nup98 (from UniProt P52948 1-880)
binds: GFP-TDP-CTF (human) [2]

GFP-Nup98 (from UniProt P52948 1-880)
binds: mCherry-TDP-CTF (human) [3] | [4] | mCherry-TDP-CTF (human) [5] | mCherry-TDP-PrLD (human)

endogenous Nup62 (from UniProt P37198 2-522)
binds: GFP-TDP-CTF (human) [6] | [7] | GFP-TDP-CTF (human) [2]

GFP-XPO1 (from UniProt O14980 1-1071)
binds: Nup62-mCherry [1] | Nup62-mCherry [8]

Nup62-mCherry (from UniProt P37198 1-522)
binds: GFP-TDP-43^mNLS (human) [9] | [10] | GFP-TDP-CTF (human) [11] | GFP-TDP-PrLD (human) [12] | GFP-TDP-43^mNLS (human) [13] | GFP-TDP-CTF (human) [14] | GFP-TDP-PrLD (human) [15]
